According to patent US20110182911A1 (published 2011):
No constants are given. Whether binding was seen depends on the method and setting. Some results given as binding are weak or reduced against the parent protein; the word gives no strength.

Amino acid sequences for entries named in this document (tags omitted). Residues count along the entry.
UniProt P12643, residues 283-396: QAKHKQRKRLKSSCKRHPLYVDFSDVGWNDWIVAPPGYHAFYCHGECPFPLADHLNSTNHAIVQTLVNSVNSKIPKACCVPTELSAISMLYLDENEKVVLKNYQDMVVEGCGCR

Legend:
recombinant human BMP-2 [1] = target: T1, recombinant human BMP-2 (human, UniProt P12643 283-396); test: rhBMP-2 dried onto protein-coated 24 well plates, total release over 24 hours measured by hBMP-2 ELISA
recombinant human BMP-2 [2] = target: T1, recombinant human BMP-2; test: rhBMP-2 dried onto protein-coated 96 well plates, release into PBS+0.1% BSA measured by hBMP-2 ELISA
recombinant human BMP-2 [3] = target: T1, recombinant human BMP-2; test: release of rhBMP-2 from coated wells, hBMP-2 ELISA

- binding (recombinant human BMP-2 [1]): binds
- binding (recombinant human BMP-2 [2]): binds
- binding (recombinant human BMP-2 [3]): binds
B1: recombinant mouse Noggin (other, UniProt P97466 28-232, looked up)
chain: QHYLHIRPAPSDNLPLVDLIEHPDPIFDPKEKDLNETLLRSLLGGHYDPGFMATSPPEDRPGGGGGPAGGAEDLAELDQLLRQRPSGAMPSEIKGLEFSEGLAQGKKQRLSKKLRRKLQMWLWSQTFCPVLYAWNDLGSRFWPRYVKVGSCFSKRSCSVPEGMVCKPSKSVHLTVLRWRCQRRGGQRCGWIPIQYPIISECKCSC
